Earlier results, collected in patent publication US11590154B2, “Triple antibiotic fixed-dose combination products, dosing regimen, methods, and kits for treating pulmonary non-tuberculosis mycobacterial infections” (priority 2020, dated 2023).
Like-named read-outs stand apart in the source and are kept apart here. Some results were stated once for a whole list of compounds, not compound by compound.

Test system: NTM
Conditions: mouse models of systemic and lung infection, preclinical literature, cited from earlier work

Row | SMILES | Effective Dose (listed as clofazimine) [mg/kg/day] | Effective Dose (listed as rifabutin) [mg/kg/day]
1 | CC(C)/N=c1\cc2n(-c3ccc(Cl)cc3)c3ccccc3nc-2cc1Nc1ccc(Cl)cc1 [Clofazimine, clofazimine] | 10 to 20 | –
2 | CO[C@H]1/C=C/O[C@@]2(C)Oc3c(C)c(O)c4c(c3C2=O)C2=NC3(CCN(CC(C)C)CC3)NC2=C(NC(=O)/C(C)=C\C=C\[C@H](C)[C@H](O)[C@@H](C)[C@@H](O)[C@@H](C)[C@H](OC(C)=O)[C@@H]1C)C4=O [Rifabutin, rifabutin] | – | 10 to 20
